# Reference: the supplement of paper PMC8728848
# The list shows a part of the results.
# B1: Agalectin (Anopheles gambiae) (protein)
# chain: MSNRPFTAKFPRYPENGDEVFIRGKLKDDAKSFSVNFCLPRPAQVAEHQTPPYIALHFKTIYDERDDTSRVVLNWKNLQWQQEEVLDNYWHVDRSQTFRVVFRLHEDCIKVFVNSVDHPPDYQFPVQLPLDQIESIELWDDVEHVEEISFRYDNGNSY
# Experiments:
# Assay in all cases: glycan array binding signal (z-score within array); higher = stronger binding
# Details in all cases: glycan notation: IUPAC condensed, linker removed
# Fuc(a1-2)Gal = biological target: Fuc(a1-2)Gal
# Outline: (§1)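 The binding signal is a Z-score computed within each array and averaged over linkers. Arrays of the same protein sequence at different concentrations or buffers were also averaged together. Data originate from 3228 arrays in the Consortium for Functional Glycomics database, kept only where the protein sequence was available.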
# Fuc(a1-2)Gal(b1-3)GalNAc = biological target: Fuc(a1-2)Gal(b1-3)GalNAc
# Outline: as §1
# [1] = biological target: Fuc(a1-2)Gal(b1-3)GalNAc(a1-3)[Fuc(a1-2)]Gal(b1-4)Glc
# Outline: as §1
# [2] = biological target: Fuc(a1-2)Gal(b1-3)GalNAc(a1-3)[Fuc(a1-2)]Gal(b1-4)GlcNAc
# Outline: as §1
# [3] = biological target: Fuc(a1-2)Gal(b1-3)GalNAc(b1-3)Gal
# Outline: as §1
# [4] = biological target: Fuc(a1-2)Gal(b1-3)GalNAc(b1-3)Gal(a1-4)Gal(b1-4)Glc
# Outline: as §1
# [5] = biological target: Fuc(a1-2)Gal(b1-3)GalNAc(b1-4)[Neu5Ac(a2-3)]Gal(b1-4)Glc
# Outline: as §1
# Fuc(a1-2)Gal(b1-3)GlcNAc = biological target: Fuc(a1-2)Gal(b1-3)GlcNAc
# Outline: as §1
# [6] = biological target: Fuc(a1-2)Gal(b1-3)GlcNAc(b1-2)Man(a1-3)[Fuc(a1-2)Gal(b1-3)GlcNAc(b1-2)Man(a1-6)]Man(b1-4)GlcNAc(b1-4)GlcNAc
# Outline: as §1
# [7] = biological target: Fuc(a1-2)Gal(b1-3)GlcNAc(b1-2)Man(a1-3)[Fuc(a1-2)Gal(b1-3)GlcNAc(b1-2)Man(a1-6)]Man(b1-4)GlcNAc(b1-4)[Fuc(a1-6)]GlcNAc
# Outline: as §1
# [8] = biological target: Fuc(a1-2)Gal(b1-3)GlcNAc(b1-3)Gal(b1-4)Glc
# Outline: as §1
# [9] = biological target: Fuc(a1-2)Gal(b1-3)GlcNAc(b1-3)GalNAc
# Outline: as §1
# [10] = biological target: Fuc(a1-2)Gal(b1-3)GlcNAc(b1-3)[Fuc(a1-2)Gal(b1-3)GlcNAc(b1-6)]GalNAc
# Outline: as §1
# [11] = biological target: Fuc(a1-2)Gal(b1-3)GlcNAc(b1-3)[Gal(b1-4)GlcNAc(b1-6)]Gal(b1-4)Glc
# Outline: as §1
# [12] = biological target: Fuc(a1-2)Gal(b1-3)GlcNAc(b1-3)[Neu5Ac(a2-6)Gal(b1-4)GlcNAc(b1-6)]Gal(b1-4)Glc
# Outline: as §1
# [13] = biological target: Fuc(a1-2)Gal(b1-3)GlcNAc6S
# Outline: as §1
# [14] = biological target: Fuc(a1-2)Gal(b1-3)[Fuc(a1-4)]GlcNAc
# Outline: as §1
# [15] = biological target: Fuc(a1-2)Gal(b1-3)[Fuc(a1-4)]GlcNAc(b1-2)Man(a1-3)[Fuc(a1-2)Gal(b1-3)[Fuc(a1-4)]GlcNAc(b1-2)Man(a1-3)]Man(b1-4)GlcNAc(b1-4)GlcNAc
# Outline: as §1
# [16] = biological target: Fuc(a1-2)Gal(b1-3)[Fuc(a1-4)]GlcNAc(b1-2)Man(a1-3)[Fuc(a1-2)Gal(b1-3)[Fuc(a1-4)]GlcNAc(b1-2)Man(a1-6)]Man(b1-4)GlcNAc(b1-4)[Fuc(a1-6)]GlcNAc(b1-4)[Fuc(a1-6)]GlcNAc
# Outline: as §1
# [17] = biological target: Fuc(a1-2)Gal(b1-3)[Fuc(a1-4)]GlcNAc(b1-3)[Fuc(a1-3)[Gal(b1-4)]GlcNAc(b1-6)]Gal(b1-4)Glc
# Outline: as §1
# [18] = biological target: Fuc(a1-2)Gal(b1-3)[Fuc(a1-4)]GlcNAc(b1-3)[Gal(b1-4)GlcNAc(b1-6)]Gal(b1-4)Glc
# Outline: as §1
# Fuc(a1-2)Gal(b1-4)Glc = biological target: Fuc(a1-2)Gal(b1-4)Glc
# Outline: as §1
# Fuc(a1-2)Gal(b1-4)Glc6S = biological target: Fuc(a1-2)Gal(b1-4)Glc6S
# Outline: as §1
# Fuc(a1-2)Gal(b1-4)GlcNAc = biological target: Fuc(a1-2)Gal(b1-4)GlcNAc
# Outline: as §1
# [19] = biological target: Fuc(a1-2)Gal(b1-4)GlcNAc(b1-2)Man
# Outline: as §1
# [20] = biological target: Fuc(a1-2)Gal(b1-4)GlcNAc(b1-2)Man(a1-3)[Fuc(a1-2)Gal(b1-4)GlcNAc(b1-2)Man(a1-6)]Man(b1-4)GlcNAc(b1-4)GlcNAc
# Outline: as §1
# [21] = biological target: Fuc(a1-2)Gal(b1-4)GlcNAc(b1-2)Man(a1-3)[Fuc(a1-2)Gal(b1-4)GlcNAc(b1-2)Man(a1-6)]Man(b1-4)GlcNAc(b1-4)[Fuc(a1-6)]GlcNAc
# Outline: as §1
# [22] = biological target: Fuc(a1-2)Gal(b1-4)GlcNAc(b1-2)[Fuc(a1-2)Gal(b1-4)GlcNAc(b1-4)]Man(a1-3)[Fuc(a1-2)Gal(b1-4)GlcNAc(b1-2)Man(a1-6)]Man(b1-4)GlcNAc(b1-4)GlcNAc
# Outline: as §1
# [23] = biological target: Fuc(a1-2)Gal(b1-4)GlcNAc(b1-3)Gal(b1-4)GlcNAc
# Outline: as §1
# [24] = biological target: Fuc(a1-2)Gal(b1-4)GlcNAc(b1-3)Gal(b1-4)GlcNAc(b1-2)Man(a1-3)[Fuc(a1-2)Gal(b1-4)GlcNAc(b1-3)Gal(b1-4)GlcNAc(b1-2)Man(a1-6)]Man(b1-4)GlcNAc(b1-4)GlcNAc
# Outline: as §1
binder,measurement,setting,value
B1,glycan array binding signal (z-score),Fuc(a1-2)Gal,0.575
same,glycan array binding signal (z-score),Fuc(a1-2)Gal(b1-3)GalNAc,-0.505
same,glycan array binding signal (z-score),[1],-0.443
same,glycan array binding signal (z-score),[2],-0.754
same,glycan array binding signal (z-score),[3],-0.269
same,glycan array binding signal (z-score),[4],-0.706
same,glycan array binding signal (z-score),[5],0.019
same,glycan array binding signal (z-score),Fuc(a1-2)Gal(b1-3)GlcNAc,-0.564
same,glycan array binding signal (z-score),[6],5.71
same,glycan array binding signal (z-score),[7],-0.193
same,glycan array binding signal (z-score),[8],-0.53
same,glycan array binding signal (z-score),[9],-1.03
same,glycan array binding signal (z-score),[10],4.19
same,glycan array binding signal (z-score),[11],-1.57
same,glycan array binding signal (z-score),[12],-1.7
same,glycan array binding signal (z-score),[13],-0.814
same,glycan array binding signal (z-score),[14],-0.396
same,glycan array binding signal (z-score),[15],1.4
same,glycan array binding signal (z-score),[16],0.179
same,glycan array binding signal (z-score),[17],0.133
same,glycan array binding signal (z-score),[18],-0.766
same,glycan array binding signal (z-score),Fuc(a1-2)Gal(b1-4)Glc,-0.434
same,glycan array binding signal (z-score),Fuc(a1-2)Gal(b1-4)Glc6S,1.12
same,glycan array binding signal (z-score),Fuc(a1-2)Gal(b1-4)GlcNAc,-0.348
same,glycan array binding signal (z-score),[19],-1.22
same,glycan array binding signal (z-score),[20],0.164
same,glycan array binding signal (z-score),[21],1.1
same,glycan array binding signal (z-score),[22],0.64
same,glycan array binding signal (z-score),[23],-0.366
same,glycan array binding signal (z-score),[24],-0.148

# Not a retest: entries from further up.
binder,measurement,setting,value
B1,glycan array binding signal (z-score),[7],-0.193
same,glycan array binding signal (z-score),[8],-0.53
same,glycan array binding signal (z-score),[9],-1.03
same,glycan array binding signal (z-score),[10],4.19
same,glycan array binding signal (z-score),[11],-1.57
same,glycan array binding signal (z-score),[12],-1.7
same,glycan array binding signal (z-score),[13],-0.814
